In the supplement of paper PMC8728848:
The list shows a part of the results.

Legend:
Assay in all cases: glycan array binding signal (z-score within array); higher = stronger binding
Details in all cases: glycan notation: IUPAC condensed, linker removed
[1] = molecular target: Man(a1-2)Man(a1-3)[Man(a1-2)Man(a1-6)]Man
Outline: (§1)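 From the Consortium for Functional Glycomics database, 3228 arrays were curated, keeping only those whose protein sequence was available. Binding is given as a within-array Z-score averaged across arrays sharing a protein sequence and across linkers. Negative Z-scores can be read as non-binding.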

[2] = molecular target: Man(a1-2)Man(a1-3)[Man(a1-2)Man(a1-6)]Man(a1-6)[Man(a1-2)Man(a1-2)Man(a1-3)]Man
Outline: as §1

[3] = molecular target: Man(a1-2)Man(a1-3)[Man(a1-2)Man(a1-6)]Man(a1-6)[Man(a1-2)Man(a1-2)Man(a1-3)]Man(b1-4)GlcNAc(b1-4)GlcNAc
Outline: as §1

[4] = molecular target: Man(a1-2)Man(a1-3)[Man(a1-6)]Man(a1-6)[Man(a1-2)Man(a1-3)]Man(b1-4)GlcNAc(b1-4)GlcNAc
Outline: as §1

[5] = molecular target: Man(a1-2)Man(a1-6)[Man(a1-3)]Man(a1-6)[Man(a1-2)Man(a1-2)Man(a1-3)]Man
Outline: as §1

[6] = molecular target: Man(a1-2)Man(a1-6)[Man(a1-3)]Man(a1-6)[Man(a1-2)Man(a1-2)Man(a1-3)]Man(b1-4)GlcNAc(b1-4)GlcNAc
Outline: as §1

Man(a1-3)[Man(a1-6)]Man = molecular target: Man(a1-3)[Man(a1-6)]Man
Outline: as §1

[7] = molecular target: Man(a1-3)[Man(a1-6)]Man(a1-6)[Man(a1-2)Man(a1-3)]Man(b1-4)GlcNAc(b1-4)GlcNAc
Outline: as §1

[8] = molecular target: Man(a1-3)[Man(a1-6)]Man(a1-6)[Man(a1-3)]Man
Outline: as §1

[9] = molecular target: Man(a1-3)[Man(a1-6)]Man(a1-6)[Man(a1-3)]Man(b1-4)GlcNAc(b1-4)GlcNAc
Outline: as §1

[10] = molecular target: Man(a1-3)[Man(a1-6)]Man(b1-4)GlcNAc(b1-4)GlcNAc
Outline: as §1

[11] = molecular target: Man(a1-3)[Man(a1-6)]Man(b1-4)GlcNAc(b1-4)[Fuc(a1-6)]GlcNAc
Outline: as §1

Man(a1-6)Man = molecular target: Man(a1-6)Man
Outline: as §1

Man(b1-4)GlcNAc = molecular target: Man(b1-4)GlcNAc
Outline: as §1

MurNAc(b1-4)GlcNAc = molecular target: MurNAc(b1-4)GlcNAc
Outline: as §1

Neu5Ac(a2-3)Gal = molecular target: Neu5Ac(a2-3)Gal
Outline: as §1

[12] = molecular target: Neu5Ac(a2-3)Gal(b1-3)GalNAc
Outline: as §1

[13] = molecular target: Neu5Ac(a2-3)Gal(b1-3)GalNAc(b1-3)Gal(a1-4)Gal(b1-4)Glc
Outline: as §1

[14] = molecular target: Neu5Ac(a2-3)Gal(b1-3)GalNAc(b1-4)Gal(b1-4)Glc
Outline: as §1

[15] = molecular target: Neu5Ac(a2-3)Gal(b1-3)GalNAc(b1-4)[Neu5Ac(a2-3)]Gal(b1-4)Glc
Outline: as §1

[16] = molecular target: Neu5Ac(a2-3)Gal(b1-3)GalNAc(b1-4)[Neu5Ac(a2-8)Neu5Ac(a2-3)]Gal(b1-4)Glc
Outline: as §1

[17] = molecular target: Neu5Ac(a2-3)Gal(b1-3)GalNAc6S
Outline: as §1

[18] = molecular target: Neu5Ac(a2-3)Gal(b1-3)GlcNAc
Outline: as §1

[19] = molecular target: Neu5Ac(a2-3)Gal(b1-3)GlcNAc(b1-2)Man
Outline: as §1

[20] = molecular target: Neu5Ac(a2-3)Gal(b1-3)GlcNAc(b1-2)Man(a1-3)[GlcNAc(b1-4)][Neu5Ac(a2-3)Gal(b1-3)GlcNAc(b1-2)Man(a1-6)]Man(b1-4)GlcNAc(b1-4)GlcNAc
Outline: as §1

[21] = molecular target: Neu5Ac(a2-3)Gal(b1-3)GlcNAc(b1-2)Man(a1-3)[Neu5Ac(a2-3)Gal(b1-3)GlcNAc(b1-2)Man(a1-6)]Man(b1-4)GlcNAc(b1-4)GlcNAc
Outline: as §1

[22] = molecular target: Neu5Ac(a2-3)Gal(b1-3)GlcNAc(b1-2)[Neu5Ac(a2-3)Gal(b1-3)GlcNAc(b1-4)]Man(a1-6)[Neu5Ac(a2-3)Gal(b1-3)GlcNAc(b1-2)Man(a1-3)]Man(b1-4)GlcNAc(b1-4)GlcNAc
Outline: as §1

[23] = molecular target: Neu5Ac(a2-3)Gal(b1-3)GlcNAc(b1-3)Gal(b1-3)GlcNAc
Outline: as §1

[24] = molecular target: Neu5Ac(a2-3)Gal(b1-3)GlcNAc(b1-3)Gal(b1-4)GlcNAc
Outline: as §1

[25] = molecular target: Neu5Ac(a2-3)Gal(b1-3)GlcNAc(b1-3)GalNAc
Outline: as §1

B1: SHCBP1-GST (Homo sapiens), Q8NEM2 (protein)
chain: MADGSLTGGGLEAAAMAPERMGWAVEQELASLEKGLFQDEDSCSDCSYRDKPGSSLQSFMPEGKTFFPEIFQTNQLLFYERFRAYQDYILADCKASEVQEFTAEFLEKVLEPSGWRAVWHTNVFKVLVEITDVDFAALKAVVRLAEPYLCDSQVSTFTMECMKELLDLKEHRLPLQELWVVFDDSGVFDQTALAIEHVRFFYQNIWRSWDEEEEDEYDYFVRCVEPRLRLHYDILEDRVPSGLIVDYHNLLSQCEESYRKFLNLRSSLSNCNSDSEQENISMVEGLKLYSEMEQLKQKLKLIENPLLRYVFGYQKNSNIQAKGVRSSGQKITHVVSSTMMAGLLRSLLTDRLCQEPGEEEREIQFHSDPLSAINACFEGDTVIVCPGHYVVHGTFSIADSIELEGYGLPDDIVIEKRGKGDTFVDCTGADIKISGIKFVQHDAVEGILIVHRGKTTLENCVLQCETTGVTVRTSAEFLMKNSDLYGAKGAGIEIYPGSQCTLSDNGIHHCKEGILIKDFLDEHYDIPKISMVNNIIHNNEGYGVVLVKPTIFSDLQENAEDGTEENKALKIQTSGEPDVAERVDLEELIECATGKMELCARTDPSEQVEGNCEIVNELIAASTQKGQIKKKRLSELGITQADDNLMSQEMFVGIVGNQFKWNGKGSFGTFLF
Question: B1 was tested. Which “glycan array binding signal (z-score)” value [1] did it give?
Answer: -0.43

Question: And the “glycan array binding signal (z-score)” value [2]?
Answer: -0.707

Question: And the “glycan array binding signal (z-score)” value [3]?
Answer: -0.586

Question: And the “glycan array binding signal (z-score)” value [4]?
Answer: -0.574

Question: And the “glycan array binding signal (z-score)” value [5]?
Answer: 0.11

Question: What about the “glycan array binding signal (z-score)” value [6] of the same binder?
Answer: -0.72

Question: What about the “glycan array binding signal (z-score)” value (Man(a1-3)[Man(a1-6)]Man) of the same binder?
Answer: 0.387

Question: What about the “glycan array binding signal (z-score)” value [7] of the same binder?
Answer: -0.061

Question: What about the “glycan array binding signal (z-score)” value [8] of the same binder?
Answer: -0.016

Question: And the “glycan array binding signal (z-score)” value [9]?
Answer: 0.695

Question: And the “glycan array binding signal (z-score)” value [10]?
Answer: -0.524

Question: What about the “glycan array binding signal (z-score)” value [11] of the same binder?
Answer: -0.42

Question: And the “glycan array binding signal (z-score)” value (Man(a1-6)Man)?
Answer: -0.285

Question: What about the “glycan array binding signal (z-score)” value (Man(b1-4)GlcNAc) of the same binder?
Answer: 0.293

Question: What about the “glycan array binding signal (z-score)” value (MurNAc(b1-4)GlcNAc) of the same binder?
Answer: -0.39

Question: What about the “glycan array binding signal (z-score)” value (Neu5Ac(a2-3)Gal) of the same binder?
Answer: 0.658

Question: What about the “glycan array binding signal (z-score)” value [12] of the same binder?
Answer: -0.322

Question: And the “glycan array binding signal (z-score)” value [13]?
Answer: -0.108

Question: What about the “glycan array binding signal (z-score)” value [14] of the same binder?
Answer: -0.427

Question: What about the “glycan array binding signal (z-score)” value [15] of the same binder?
Answer: 0.166

Question: What about the “glycan array binding signal (z-score)” value [16] of the same binder?
Answer: -0.123

Question: What about the “glycan array binding signal (z-score)” value [17] of the same binder?
Answer: -0.959

Question: What about the “glycan array binding signal (z-score)” value [18] of the same binder?
Answer: 0.028

Question: And the “glycan array binding signal (z-score)” value [19]?
Answer: 0.247

Question: And the “glycan array binding signal (z-score)” value [20]?
Answer: -0.681

Question: What about the “glycan array binding signal (z-score)” value [21] of the same binder?
Answer: -0.428

Question: What about the “glycan array binding signal (z-score)” value [22] of the same binder?
Answer: 1.25

Question: And the “glycan array binding signal (z-score)” value [23]?
Answer: -0.82

Question: What about the “glycan array binding signal (z-score)” value [24] of the same binder?
Answer: -0.255

Question: And the “glycan array binding signal (z-score)” value [25]?
Answer: -0.12
